No constants are given. Whether binding was seen depends on the method and setting. In cells and extracts the contact can be indirect. Here binding means that the protein was enriched with, or labelled near, the bait; the list need not be complete.
target: Flag-METTL3 (UniProt Q86U44); assay: affinity purification with mass spectrometry; Flag-METTL3 expressed in AML cells; METTL3-immunoprecipitated complexes analysed by mass spectrometry

Sequences of proteins named here, by UniProt entry; tags and fusion partners are left off.
UniProt Q86U44: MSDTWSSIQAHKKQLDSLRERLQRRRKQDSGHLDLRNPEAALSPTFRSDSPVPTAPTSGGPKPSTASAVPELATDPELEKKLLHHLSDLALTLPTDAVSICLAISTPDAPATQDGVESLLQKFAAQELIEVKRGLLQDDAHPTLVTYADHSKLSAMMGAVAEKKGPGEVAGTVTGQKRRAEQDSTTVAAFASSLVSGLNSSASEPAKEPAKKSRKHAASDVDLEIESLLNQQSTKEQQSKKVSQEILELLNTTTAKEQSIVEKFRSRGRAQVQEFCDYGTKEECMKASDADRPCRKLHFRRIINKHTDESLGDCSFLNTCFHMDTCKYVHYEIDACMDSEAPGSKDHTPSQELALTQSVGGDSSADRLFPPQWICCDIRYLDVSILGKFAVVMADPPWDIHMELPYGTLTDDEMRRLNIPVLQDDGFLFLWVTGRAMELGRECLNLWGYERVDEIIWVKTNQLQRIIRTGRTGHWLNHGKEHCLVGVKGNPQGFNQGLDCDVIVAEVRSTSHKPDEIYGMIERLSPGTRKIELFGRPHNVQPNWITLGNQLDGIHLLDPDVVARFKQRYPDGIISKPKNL
UniProt Q9UPN9: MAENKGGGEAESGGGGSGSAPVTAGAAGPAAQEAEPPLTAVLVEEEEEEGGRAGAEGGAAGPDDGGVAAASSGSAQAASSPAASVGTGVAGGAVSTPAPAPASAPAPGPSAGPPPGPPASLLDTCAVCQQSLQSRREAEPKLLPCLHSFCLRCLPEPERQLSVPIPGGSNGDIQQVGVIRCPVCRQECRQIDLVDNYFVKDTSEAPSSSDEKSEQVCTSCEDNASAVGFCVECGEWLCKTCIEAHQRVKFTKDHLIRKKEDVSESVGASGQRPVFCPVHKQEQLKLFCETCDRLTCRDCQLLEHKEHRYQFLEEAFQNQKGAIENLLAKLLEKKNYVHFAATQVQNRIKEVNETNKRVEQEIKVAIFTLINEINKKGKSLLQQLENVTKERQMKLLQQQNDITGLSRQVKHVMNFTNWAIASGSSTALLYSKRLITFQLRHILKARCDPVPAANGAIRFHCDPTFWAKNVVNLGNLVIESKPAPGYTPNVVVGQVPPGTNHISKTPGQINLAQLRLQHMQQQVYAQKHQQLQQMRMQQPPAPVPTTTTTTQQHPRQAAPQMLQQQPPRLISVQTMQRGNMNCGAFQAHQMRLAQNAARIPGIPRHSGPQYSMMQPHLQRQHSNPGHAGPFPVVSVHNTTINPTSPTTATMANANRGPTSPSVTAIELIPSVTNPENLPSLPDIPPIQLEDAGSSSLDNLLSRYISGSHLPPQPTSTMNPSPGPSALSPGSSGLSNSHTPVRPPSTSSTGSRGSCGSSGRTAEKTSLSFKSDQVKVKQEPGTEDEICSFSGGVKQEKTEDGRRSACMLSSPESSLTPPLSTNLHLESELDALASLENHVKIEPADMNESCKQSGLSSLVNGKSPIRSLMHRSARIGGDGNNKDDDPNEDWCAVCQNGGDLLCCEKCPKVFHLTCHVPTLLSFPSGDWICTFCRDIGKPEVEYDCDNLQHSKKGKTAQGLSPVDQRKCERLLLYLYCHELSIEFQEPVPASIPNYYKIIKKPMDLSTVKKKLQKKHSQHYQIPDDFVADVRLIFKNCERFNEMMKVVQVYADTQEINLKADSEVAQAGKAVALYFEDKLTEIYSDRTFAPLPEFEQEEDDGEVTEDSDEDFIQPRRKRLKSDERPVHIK
UniProt O75592: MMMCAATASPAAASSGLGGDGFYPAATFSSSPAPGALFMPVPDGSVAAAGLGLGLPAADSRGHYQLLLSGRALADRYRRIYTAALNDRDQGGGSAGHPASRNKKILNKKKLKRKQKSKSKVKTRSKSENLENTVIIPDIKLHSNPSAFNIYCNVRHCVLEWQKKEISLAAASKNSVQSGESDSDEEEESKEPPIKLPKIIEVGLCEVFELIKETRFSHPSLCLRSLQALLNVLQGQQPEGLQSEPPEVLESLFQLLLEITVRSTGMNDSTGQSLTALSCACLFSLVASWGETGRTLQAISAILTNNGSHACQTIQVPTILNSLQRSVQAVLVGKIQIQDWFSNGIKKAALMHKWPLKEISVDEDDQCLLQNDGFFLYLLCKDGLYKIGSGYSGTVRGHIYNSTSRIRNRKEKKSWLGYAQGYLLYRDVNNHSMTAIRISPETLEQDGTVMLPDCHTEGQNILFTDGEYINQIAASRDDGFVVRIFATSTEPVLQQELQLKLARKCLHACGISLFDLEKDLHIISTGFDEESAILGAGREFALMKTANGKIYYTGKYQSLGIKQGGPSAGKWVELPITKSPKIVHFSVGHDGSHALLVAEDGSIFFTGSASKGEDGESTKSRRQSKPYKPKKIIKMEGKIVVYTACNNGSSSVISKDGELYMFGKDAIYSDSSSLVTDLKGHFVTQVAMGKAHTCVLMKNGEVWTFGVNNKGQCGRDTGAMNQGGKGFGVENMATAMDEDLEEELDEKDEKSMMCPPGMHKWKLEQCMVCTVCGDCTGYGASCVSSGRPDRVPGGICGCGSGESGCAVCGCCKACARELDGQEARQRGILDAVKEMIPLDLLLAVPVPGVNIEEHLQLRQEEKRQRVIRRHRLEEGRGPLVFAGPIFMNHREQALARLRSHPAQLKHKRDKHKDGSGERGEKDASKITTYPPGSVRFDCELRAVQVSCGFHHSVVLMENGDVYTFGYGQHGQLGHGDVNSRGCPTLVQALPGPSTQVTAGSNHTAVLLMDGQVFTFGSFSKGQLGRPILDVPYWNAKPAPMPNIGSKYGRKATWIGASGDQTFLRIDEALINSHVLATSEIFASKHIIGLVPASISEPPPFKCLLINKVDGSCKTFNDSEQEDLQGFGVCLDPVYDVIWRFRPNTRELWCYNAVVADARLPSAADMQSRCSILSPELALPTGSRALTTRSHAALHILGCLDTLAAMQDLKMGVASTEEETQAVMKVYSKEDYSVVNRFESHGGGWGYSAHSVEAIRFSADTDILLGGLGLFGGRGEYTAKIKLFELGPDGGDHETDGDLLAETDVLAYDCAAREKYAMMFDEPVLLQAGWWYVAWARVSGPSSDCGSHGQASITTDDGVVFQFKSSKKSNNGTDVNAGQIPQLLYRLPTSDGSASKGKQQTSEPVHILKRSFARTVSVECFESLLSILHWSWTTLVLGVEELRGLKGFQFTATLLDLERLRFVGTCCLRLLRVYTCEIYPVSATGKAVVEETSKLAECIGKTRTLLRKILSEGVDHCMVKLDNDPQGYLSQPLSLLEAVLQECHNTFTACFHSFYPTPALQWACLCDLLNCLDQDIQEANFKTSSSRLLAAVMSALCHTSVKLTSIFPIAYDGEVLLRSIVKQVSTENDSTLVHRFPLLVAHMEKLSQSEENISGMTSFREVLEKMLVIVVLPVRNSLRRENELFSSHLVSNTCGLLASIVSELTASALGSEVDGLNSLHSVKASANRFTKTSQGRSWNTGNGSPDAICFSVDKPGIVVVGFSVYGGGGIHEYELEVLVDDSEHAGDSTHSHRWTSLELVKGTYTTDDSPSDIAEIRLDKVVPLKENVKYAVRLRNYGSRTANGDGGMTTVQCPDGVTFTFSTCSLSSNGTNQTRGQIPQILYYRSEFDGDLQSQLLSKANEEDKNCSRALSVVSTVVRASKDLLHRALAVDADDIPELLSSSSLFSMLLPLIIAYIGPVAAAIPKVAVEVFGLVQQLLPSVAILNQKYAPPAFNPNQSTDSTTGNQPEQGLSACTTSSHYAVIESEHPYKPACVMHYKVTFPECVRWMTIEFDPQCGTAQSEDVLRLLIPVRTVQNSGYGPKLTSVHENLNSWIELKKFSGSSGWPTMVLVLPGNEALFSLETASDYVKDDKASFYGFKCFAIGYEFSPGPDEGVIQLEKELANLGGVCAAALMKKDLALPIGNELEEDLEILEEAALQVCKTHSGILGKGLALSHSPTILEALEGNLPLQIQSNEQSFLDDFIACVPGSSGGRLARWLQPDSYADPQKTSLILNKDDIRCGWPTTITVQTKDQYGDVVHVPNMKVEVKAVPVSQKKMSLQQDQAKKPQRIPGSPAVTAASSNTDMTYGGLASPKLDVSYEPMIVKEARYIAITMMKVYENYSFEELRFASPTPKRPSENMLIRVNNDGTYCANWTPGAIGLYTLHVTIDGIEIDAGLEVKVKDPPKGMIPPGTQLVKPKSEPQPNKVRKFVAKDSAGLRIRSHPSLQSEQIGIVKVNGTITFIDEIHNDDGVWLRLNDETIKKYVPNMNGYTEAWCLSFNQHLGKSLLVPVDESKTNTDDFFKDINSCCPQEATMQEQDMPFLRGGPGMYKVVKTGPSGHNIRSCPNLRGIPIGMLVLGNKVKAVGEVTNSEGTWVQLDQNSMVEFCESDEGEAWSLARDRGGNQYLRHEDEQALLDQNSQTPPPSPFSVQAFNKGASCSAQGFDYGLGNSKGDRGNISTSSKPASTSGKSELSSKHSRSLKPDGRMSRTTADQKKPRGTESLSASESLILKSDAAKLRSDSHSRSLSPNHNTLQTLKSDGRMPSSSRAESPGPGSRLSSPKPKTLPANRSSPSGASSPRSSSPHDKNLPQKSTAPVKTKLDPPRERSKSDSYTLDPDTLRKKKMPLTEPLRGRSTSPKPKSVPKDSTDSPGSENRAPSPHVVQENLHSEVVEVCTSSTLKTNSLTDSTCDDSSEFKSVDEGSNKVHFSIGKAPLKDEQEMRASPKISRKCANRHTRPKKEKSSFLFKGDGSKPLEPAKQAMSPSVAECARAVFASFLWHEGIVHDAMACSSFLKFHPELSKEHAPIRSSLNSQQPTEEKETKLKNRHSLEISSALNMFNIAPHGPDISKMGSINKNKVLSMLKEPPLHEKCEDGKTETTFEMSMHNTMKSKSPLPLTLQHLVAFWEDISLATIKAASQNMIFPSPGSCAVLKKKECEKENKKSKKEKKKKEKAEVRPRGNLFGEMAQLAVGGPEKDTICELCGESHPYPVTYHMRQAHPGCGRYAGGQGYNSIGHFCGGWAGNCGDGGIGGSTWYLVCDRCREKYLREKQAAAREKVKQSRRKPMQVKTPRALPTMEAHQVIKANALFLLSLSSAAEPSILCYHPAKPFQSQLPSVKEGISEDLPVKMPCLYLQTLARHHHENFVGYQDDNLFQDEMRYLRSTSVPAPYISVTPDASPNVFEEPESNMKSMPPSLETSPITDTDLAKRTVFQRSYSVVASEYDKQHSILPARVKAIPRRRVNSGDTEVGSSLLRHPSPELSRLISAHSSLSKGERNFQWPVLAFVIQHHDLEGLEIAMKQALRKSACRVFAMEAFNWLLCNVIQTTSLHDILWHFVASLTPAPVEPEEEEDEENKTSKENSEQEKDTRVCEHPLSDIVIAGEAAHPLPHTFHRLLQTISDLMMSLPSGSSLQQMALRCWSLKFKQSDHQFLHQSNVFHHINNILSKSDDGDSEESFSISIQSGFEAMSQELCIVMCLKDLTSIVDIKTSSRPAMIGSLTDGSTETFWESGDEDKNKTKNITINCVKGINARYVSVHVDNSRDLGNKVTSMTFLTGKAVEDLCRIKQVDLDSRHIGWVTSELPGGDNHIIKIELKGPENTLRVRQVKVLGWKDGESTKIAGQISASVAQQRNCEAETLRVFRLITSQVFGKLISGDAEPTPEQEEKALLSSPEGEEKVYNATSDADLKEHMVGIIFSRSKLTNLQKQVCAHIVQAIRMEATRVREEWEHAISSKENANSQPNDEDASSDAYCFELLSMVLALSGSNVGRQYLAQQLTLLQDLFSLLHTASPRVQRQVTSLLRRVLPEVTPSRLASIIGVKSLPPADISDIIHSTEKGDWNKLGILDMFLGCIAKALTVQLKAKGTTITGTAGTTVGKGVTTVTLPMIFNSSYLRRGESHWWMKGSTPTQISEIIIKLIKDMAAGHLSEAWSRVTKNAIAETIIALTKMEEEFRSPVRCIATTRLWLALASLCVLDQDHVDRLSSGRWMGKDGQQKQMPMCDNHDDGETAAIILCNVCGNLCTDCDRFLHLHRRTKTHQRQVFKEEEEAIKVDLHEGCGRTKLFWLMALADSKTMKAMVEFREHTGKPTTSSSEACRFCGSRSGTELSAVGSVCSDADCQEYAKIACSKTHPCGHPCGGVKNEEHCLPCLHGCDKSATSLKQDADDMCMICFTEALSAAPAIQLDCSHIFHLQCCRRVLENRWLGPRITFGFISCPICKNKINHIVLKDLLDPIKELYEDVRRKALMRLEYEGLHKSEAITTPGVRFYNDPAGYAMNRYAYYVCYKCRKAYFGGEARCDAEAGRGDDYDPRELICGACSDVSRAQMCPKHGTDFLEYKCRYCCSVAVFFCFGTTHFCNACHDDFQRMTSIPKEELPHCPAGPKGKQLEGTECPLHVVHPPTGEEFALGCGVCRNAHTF

| Molecule | binding |
| --- | --- |
| HERC2 (from UniProt O95714 1-4834) (enzyme) | binds |
| HUWE1 (from UniProt Q7Z6Z7 1-4374) (enzyme) | binds |
| UBR5 (from UniProt O95071 1-2799) (enzyme) | binds |
| TRIM21 (from UniProt P19474 1-475) (enzyme) | binds |
| TRIM33 (from UniProt Q9UPN9 1-1127) (enzyme) | binds |
| RNF113A (from UniProt O15541 1-343) (enzyme) | binds |
| MYCBP2 (from UniProt O75592 1-4678) (enzyme) | binds |
| TRIM56 (enzyme, UniProt Q9BRZ2 1-755) MVSHGSSPSLLEALSSDFLACKICLEQLRAPKTLPCLHTYCQDCLAQLADGGRVRCPECRETVPVPPEGVASFKTNFFVNGLLDLVKARACGDLRAGKPACALCPLVGGTSTGGPATARCLDCADDLCQACADGHRCTRQTHTHRVVDLVGYRAGWYDEEARERQAAQCPQHPGEALRFLCQPCSQLLCRECRLDPHLDHPCLPLAEAVRARRPGLEGLLAGVDNNLVELEAARRVEKEALARLREQAARVGTQVEEAAEGVLRALLAQKQEVLGQLRAHVEAAEEAARERLAELEGREQVARAAAAFARRVLSLGREAEILSLEGAIAQRLRQLQGCPWAPGPAPCLLPQLELHPGLLDKNCHLLRLSFEEQQPQKDGGKDGAGTQGGEESQSRREDEPKTERQGGVQPQAGDGAQTPKEEKAQTTREEGAQTLEEDRAQTPHEDGGPQPHRGGRPNKKKKFKGRLKSISREPSPALGPNLDGSGLLPRPIFYCSFPTRMPGDKRSPRITGLCPFGPREILVADEQNRALKRFSLNGDYKGTVPVPEGCSPCSVAALQSAVAFSASARLYLINPNGEVQWRRALSLSQASHAVAALPSGDRVAVSVAGHVEVYNMEGSLATRFIPGGKASRGLRALVFLTTSPQGHFVGSDWQQNSVVICDGLGQVVGEYKGPGLHGCQPGSVSVDKKGYIFLTLREVNKVVILDPKGSLLGDFLTAYHGLEKPRVTTMVDGRYLVVSLSNGTIHIFRVRSPDS | binds |
| TRIM41 (enzyme, UniProt Q8WV44 1-630) MAAVAMTPNPVQTLQEEAVCAICLDYFTDPVSIGCGHNFCRVCVTQLWGGEDEEDRDELDREEEEEDGEEEEVEAVGAGAGWDTPMRDEDYEGDMEEEVEEEEEGVFWTSGMSRSSWDNMDYVWEEEDEEEDLDYYLGDMEEEDLRGEDEEDEEEVLEEVEEEDLDPVTPLPPPPAPRRCFTCPQCRKSFPRRSFRPNLQLANMVQVIRQMHPTPGRGSRVTDQGICPKHQEALKLFCEVDEEAICVVCRESRSHKQHSVVPLEEVVQEYKAKLQGHVEPLRKHLEAVQKMKAKEERRVTELKSQMKSELAAVASEFGRLTRFLAEEQAGLERRLREMHEAQLGRAGAAASRLAEQAAQLSRLLAEAQERSQQGGLRLLQDIKETFNRCEEVQLQPPEVWSPDPCQPHSHDFLTDAIVRKMSRMFCQAARVDLTLDPDTAHPALMLSPDRRGVRLAERRQEVADHPKRFSADCCVLGAQGFRSGRHYWEVEVGGRRGWAVGAARESTHHKEKVGPGGSSVGSGDASSSRHHHRRRRLHLPQQPLLQREVWCVGTNGKRYQAQSSTEQTLLSPSEKPRRFGVYLDYEAGRLGFYNAETLAHVHTFSAAFLGERVFPFFRVLSKGTRIKLCP | binds |
